Measurements published in patent US20240408218A1 (KØBENHAVNS UNIVERSITET, priority 2021, published 2024).

Assay: general procedure: Fmoc solid-phase peptide synthesis; H-Rink amide ChemMatrix resin, 35-100 mesh, loading 0.40-0.60 mmol/g; HCTU/DIPEA
Conditions: conjugation step, analytical HPLC (214 nm); RP-UPLC and ESI-LCMS

Substance: Glucagon Pen40/MK-8722
- purity (crude or final not stated): >95%
